# According to the supplement of paper PMC12819154, “High-throughput peptide-centric local stability assay extends protein–ligand identification to membrane proteins, tissues and bacteria” (Nature Structural & Molecular Biology, 2025):
# Protein sequences, listed by entry. Tags and fused reporters are not part of them. Lines headed by an entry give the natural chain unless they say otherwise; changes in a name come on top.
# UniProt Q05915: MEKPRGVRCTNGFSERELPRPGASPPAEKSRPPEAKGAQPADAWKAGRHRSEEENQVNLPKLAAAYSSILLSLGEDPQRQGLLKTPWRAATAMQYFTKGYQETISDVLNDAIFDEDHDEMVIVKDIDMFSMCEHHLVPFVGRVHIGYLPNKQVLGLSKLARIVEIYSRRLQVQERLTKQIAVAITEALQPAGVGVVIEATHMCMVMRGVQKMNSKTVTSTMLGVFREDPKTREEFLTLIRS
# UniProt Q09200: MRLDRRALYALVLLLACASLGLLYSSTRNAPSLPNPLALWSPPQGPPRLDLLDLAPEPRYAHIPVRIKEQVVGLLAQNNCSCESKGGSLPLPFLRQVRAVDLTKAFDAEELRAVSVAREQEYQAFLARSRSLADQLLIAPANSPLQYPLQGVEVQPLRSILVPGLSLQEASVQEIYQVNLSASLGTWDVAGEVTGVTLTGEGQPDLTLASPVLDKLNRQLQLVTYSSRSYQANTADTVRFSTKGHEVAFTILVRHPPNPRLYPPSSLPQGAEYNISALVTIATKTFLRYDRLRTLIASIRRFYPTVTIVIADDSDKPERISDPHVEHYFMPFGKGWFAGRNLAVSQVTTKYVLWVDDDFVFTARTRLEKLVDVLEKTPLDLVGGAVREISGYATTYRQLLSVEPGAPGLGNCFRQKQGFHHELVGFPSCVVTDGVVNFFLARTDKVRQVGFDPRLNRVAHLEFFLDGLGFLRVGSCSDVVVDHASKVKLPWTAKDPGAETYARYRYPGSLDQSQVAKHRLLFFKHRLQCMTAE
# UniProt Q5RJG7: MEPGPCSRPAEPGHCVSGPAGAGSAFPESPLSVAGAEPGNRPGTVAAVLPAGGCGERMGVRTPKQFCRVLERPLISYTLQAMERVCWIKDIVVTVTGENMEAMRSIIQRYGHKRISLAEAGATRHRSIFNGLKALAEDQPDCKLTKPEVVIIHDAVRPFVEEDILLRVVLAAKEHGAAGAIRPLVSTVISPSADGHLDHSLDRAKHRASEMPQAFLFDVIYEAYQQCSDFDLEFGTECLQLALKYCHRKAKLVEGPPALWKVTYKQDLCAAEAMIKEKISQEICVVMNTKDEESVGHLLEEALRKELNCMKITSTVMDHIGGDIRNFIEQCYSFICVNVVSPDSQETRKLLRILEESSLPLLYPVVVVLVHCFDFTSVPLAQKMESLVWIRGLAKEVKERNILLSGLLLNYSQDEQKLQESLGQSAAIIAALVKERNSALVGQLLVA
# UniProt Q3UHX0: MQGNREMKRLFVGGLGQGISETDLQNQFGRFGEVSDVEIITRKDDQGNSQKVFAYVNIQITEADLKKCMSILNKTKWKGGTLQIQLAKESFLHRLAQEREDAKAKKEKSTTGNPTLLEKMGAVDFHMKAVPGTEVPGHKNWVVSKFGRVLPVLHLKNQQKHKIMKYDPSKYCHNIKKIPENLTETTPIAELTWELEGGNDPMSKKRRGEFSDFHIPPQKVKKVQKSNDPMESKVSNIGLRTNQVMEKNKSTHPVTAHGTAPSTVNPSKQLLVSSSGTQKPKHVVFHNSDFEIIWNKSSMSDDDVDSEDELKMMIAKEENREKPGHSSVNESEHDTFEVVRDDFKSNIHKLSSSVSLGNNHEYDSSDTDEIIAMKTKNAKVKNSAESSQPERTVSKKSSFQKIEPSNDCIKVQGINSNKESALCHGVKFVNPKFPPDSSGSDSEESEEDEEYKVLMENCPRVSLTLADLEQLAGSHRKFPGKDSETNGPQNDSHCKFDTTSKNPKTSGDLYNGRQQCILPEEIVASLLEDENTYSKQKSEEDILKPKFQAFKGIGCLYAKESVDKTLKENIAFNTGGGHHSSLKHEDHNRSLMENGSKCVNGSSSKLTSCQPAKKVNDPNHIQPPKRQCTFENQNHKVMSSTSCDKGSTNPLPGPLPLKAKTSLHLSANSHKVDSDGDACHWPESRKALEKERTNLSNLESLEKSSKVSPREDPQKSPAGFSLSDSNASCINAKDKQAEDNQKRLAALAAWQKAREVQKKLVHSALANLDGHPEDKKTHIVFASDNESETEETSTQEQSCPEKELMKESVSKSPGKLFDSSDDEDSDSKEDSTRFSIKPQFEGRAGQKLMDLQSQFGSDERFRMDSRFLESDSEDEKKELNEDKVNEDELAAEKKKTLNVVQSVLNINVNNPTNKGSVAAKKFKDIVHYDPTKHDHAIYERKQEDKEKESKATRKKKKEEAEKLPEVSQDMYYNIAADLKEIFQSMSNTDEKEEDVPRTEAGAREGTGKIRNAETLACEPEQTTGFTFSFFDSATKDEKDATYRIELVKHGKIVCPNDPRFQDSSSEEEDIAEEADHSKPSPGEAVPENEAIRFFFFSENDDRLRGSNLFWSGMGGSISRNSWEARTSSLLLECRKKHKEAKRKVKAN
# UniProt Q00PI9: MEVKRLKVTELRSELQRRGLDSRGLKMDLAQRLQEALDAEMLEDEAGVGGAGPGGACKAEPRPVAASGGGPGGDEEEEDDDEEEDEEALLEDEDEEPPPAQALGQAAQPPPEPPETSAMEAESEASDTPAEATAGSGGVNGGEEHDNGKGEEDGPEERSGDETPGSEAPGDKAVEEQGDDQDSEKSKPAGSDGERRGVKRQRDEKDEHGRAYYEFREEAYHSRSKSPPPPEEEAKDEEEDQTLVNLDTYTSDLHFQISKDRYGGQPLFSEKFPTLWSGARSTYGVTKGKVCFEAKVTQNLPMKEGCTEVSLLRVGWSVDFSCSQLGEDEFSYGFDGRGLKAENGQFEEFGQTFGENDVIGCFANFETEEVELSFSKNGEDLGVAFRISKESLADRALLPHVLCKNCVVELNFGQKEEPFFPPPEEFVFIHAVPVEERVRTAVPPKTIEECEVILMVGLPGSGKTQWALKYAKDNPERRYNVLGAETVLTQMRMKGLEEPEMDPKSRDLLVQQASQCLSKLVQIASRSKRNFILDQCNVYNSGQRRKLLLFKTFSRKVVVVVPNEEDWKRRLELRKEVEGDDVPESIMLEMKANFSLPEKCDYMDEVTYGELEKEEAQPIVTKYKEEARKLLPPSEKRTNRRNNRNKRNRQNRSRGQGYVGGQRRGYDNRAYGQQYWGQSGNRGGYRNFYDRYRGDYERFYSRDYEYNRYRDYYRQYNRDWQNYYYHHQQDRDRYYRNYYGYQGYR
# UniProt Q07113, whole entry: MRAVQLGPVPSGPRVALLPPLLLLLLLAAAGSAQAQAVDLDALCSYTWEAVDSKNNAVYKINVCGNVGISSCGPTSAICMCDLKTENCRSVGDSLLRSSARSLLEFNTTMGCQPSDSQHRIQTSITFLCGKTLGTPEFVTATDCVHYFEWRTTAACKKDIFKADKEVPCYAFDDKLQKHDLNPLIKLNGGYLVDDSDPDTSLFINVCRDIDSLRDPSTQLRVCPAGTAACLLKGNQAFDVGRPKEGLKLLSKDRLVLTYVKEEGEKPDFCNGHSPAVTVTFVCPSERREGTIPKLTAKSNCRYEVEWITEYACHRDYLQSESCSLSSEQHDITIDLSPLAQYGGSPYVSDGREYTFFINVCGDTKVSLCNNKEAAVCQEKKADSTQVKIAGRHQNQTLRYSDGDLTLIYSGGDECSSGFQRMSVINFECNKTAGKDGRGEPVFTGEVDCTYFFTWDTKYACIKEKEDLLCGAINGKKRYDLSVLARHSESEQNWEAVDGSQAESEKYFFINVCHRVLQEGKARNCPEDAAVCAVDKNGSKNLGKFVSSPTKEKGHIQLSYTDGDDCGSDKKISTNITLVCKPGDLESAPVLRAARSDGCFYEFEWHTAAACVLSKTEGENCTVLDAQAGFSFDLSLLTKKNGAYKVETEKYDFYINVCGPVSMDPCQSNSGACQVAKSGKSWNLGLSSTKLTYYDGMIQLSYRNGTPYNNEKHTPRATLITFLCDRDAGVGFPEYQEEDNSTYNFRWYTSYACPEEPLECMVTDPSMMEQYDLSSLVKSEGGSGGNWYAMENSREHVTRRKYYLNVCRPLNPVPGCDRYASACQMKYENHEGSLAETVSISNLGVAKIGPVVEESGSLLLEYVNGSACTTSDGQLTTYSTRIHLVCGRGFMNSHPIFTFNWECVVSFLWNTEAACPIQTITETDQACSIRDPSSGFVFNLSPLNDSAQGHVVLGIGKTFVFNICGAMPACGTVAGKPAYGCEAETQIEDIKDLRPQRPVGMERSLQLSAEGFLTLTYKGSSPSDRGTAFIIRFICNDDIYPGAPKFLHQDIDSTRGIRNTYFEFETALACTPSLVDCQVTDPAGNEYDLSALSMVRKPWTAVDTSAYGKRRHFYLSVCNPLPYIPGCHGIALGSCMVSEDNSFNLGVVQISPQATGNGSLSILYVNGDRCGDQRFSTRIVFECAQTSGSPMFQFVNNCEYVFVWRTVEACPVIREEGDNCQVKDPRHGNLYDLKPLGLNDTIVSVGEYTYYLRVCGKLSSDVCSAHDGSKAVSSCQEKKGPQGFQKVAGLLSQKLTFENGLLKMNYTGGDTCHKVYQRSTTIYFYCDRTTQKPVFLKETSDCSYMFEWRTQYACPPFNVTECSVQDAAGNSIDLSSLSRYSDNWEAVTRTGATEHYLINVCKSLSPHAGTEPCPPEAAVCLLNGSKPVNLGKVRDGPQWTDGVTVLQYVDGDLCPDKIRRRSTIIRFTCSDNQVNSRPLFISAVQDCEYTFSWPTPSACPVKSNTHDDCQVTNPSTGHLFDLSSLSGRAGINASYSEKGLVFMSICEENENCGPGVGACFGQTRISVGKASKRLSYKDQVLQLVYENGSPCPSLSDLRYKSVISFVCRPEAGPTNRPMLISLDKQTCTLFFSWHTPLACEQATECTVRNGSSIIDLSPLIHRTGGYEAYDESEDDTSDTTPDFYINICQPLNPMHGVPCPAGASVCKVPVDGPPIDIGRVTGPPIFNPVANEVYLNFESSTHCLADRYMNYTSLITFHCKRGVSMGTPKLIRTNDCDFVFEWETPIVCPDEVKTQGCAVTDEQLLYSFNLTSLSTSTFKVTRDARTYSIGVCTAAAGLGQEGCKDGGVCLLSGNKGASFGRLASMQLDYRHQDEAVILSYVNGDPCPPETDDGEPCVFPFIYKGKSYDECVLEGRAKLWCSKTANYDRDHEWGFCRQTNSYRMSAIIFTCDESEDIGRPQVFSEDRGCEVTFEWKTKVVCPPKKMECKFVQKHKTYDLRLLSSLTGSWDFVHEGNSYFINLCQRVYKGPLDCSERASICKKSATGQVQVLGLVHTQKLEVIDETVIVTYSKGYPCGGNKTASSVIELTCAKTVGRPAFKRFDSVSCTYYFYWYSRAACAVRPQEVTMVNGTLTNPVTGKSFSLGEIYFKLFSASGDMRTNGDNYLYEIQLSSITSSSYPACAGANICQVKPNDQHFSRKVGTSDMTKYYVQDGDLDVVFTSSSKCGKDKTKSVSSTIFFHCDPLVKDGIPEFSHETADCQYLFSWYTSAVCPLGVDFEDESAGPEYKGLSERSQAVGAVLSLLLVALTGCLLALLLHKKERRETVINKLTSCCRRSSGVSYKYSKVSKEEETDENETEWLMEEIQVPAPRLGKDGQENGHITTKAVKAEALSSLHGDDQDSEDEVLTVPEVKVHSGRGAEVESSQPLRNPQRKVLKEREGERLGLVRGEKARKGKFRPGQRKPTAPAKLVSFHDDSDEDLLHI
# UniProt Q3UD01: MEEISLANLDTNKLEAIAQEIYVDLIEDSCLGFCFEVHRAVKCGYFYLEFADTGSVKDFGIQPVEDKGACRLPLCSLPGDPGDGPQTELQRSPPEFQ
# UniProt Q3UIU2, whole entry: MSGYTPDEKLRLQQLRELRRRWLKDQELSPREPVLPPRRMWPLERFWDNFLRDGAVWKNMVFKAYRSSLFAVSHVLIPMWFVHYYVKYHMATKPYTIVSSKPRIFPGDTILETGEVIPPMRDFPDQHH
# UniProt Q5M8N0: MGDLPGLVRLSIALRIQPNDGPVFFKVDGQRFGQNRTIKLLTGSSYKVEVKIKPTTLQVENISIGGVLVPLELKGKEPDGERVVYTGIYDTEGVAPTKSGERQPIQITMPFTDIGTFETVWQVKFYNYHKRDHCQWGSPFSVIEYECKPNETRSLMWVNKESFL
# UniProt Q03311, whole entry: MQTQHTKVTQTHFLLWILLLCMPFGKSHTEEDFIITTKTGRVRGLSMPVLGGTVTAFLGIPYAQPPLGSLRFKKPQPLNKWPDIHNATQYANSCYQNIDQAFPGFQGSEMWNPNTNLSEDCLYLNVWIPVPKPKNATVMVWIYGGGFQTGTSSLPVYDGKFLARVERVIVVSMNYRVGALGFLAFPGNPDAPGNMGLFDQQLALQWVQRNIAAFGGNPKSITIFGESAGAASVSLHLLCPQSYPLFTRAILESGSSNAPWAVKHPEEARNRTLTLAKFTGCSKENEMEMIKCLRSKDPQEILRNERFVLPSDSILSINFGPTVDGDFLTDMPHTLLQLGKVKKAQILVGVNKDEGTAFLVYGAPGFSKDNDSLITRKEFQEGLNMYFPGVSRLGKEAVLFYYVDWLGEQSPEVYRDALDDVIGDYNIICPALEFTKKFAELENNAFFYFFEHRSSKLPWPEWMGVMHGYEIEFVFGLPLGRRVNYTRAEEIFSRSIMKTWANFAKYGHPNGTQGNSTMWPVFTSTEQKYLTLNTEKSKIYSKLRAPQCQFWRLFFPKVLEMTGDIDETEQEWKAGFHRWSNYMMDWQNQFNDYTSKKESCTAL
# The other results are listed elsewhere or left out. Small differences around the control level are noise.
# Compound: CN[C@@H]1C[C@H]2O[C@@](C)([C@@H]1OC)n1c3ccccc3c3c4c(c5c6ccccc6n2c5c31)C(=O)NC4 [staurosporine]
# Assay: log2 fold change of pooled soluble protein (PISA), ligand vs vehicle (log2 ratio); higher = more thermally stabilized
# Details: ligand concentration: 20 uM; assay format: PISA pool 52.9/55.5/58.6 C
row,Target,log2 fold change of pooled soluble protein
1,UniProt Q14DH7,-0.0169
2,UniProt Q3TWL2,-0.0441
3,UniProt Q05915,-0.0753
4,UniProt Q05512,0.0377
5,UniProt Q3U1F9,-0.12
6,UniProt Q09200,-0.0571
7,UniProt Q3UPH1,-0.0864
8,UniProt Q3UEG6,-0.0272
9,UniProt Q5RJG7,-0.0162
10,UniProt Q3UHX0,0.0884
11,UniProt Q00PI9,0.0687
12,UniProt Q3TLP5,-0.0109
13,UniProt Q3TCH7,0.282
14,UniProt Q07797,-0.0404
15,UniProt Q5FWK3,0.0218
16,UniProt Q07113,0.0665
17,UniProt Q3UD01,-0.114
18,UniProt Q01730,-0.121

row,Target,log2 fold change of pooled soluble protein
1,UniProt Q3UV17,-0.415
2,UniProt Q4VGL6,0.541
3,UniProt Q3UC65,0.172
4,UniProt Q3UIU2,-0.473
5,UniProt P99026,-0.102
6,UniProt Q5RJF7,0.0542
7,UniProt Q5M8N0,0.00666
8,UniProt Q3UH60,-0.321
9,UniProt Q3U2P1,-0.0185
10,UniProt Q149L6,0.205
11,UniProt Q3TFQ1,-0.186
12,UniProt Q11011,-0.0609
13,UniProt Q07456,0.0712
14,UniProt Q3UHK8,0.451
15,UniProt Q0P678,0.0839
16,UniProt Q3UDW8,-0.0161
17,UniProt Q03311,-0.0349
18,UniProt Q3U5Q7,-0.00692

# A section taken from the entries so far, as a working copy:
row,Target,log2 fold change of pooled soluble protein
8,UniProt Q3UH60,-0.321
9,UniProt Q3U2P1,-0.0185
